Results are given in words; binding and its absence hold for the method and conditions named. Some binding calls cover weakened binding; strength is not graded here.
Columns and labels:
FimD (E. coli) = molecular target: T1, FimD (E. coli) (UniProt P30130); test: co-purification (HisTrap, Strep-Tactin, SEC); FimD, FimC and FimH co-expressed in E. coli Tuner; outer membranes solubilised in 1.5% DDM; HisTrap HP, Strep-Tactin sepharose, Superdex 200 in 0.05% DDM
T1 sequence: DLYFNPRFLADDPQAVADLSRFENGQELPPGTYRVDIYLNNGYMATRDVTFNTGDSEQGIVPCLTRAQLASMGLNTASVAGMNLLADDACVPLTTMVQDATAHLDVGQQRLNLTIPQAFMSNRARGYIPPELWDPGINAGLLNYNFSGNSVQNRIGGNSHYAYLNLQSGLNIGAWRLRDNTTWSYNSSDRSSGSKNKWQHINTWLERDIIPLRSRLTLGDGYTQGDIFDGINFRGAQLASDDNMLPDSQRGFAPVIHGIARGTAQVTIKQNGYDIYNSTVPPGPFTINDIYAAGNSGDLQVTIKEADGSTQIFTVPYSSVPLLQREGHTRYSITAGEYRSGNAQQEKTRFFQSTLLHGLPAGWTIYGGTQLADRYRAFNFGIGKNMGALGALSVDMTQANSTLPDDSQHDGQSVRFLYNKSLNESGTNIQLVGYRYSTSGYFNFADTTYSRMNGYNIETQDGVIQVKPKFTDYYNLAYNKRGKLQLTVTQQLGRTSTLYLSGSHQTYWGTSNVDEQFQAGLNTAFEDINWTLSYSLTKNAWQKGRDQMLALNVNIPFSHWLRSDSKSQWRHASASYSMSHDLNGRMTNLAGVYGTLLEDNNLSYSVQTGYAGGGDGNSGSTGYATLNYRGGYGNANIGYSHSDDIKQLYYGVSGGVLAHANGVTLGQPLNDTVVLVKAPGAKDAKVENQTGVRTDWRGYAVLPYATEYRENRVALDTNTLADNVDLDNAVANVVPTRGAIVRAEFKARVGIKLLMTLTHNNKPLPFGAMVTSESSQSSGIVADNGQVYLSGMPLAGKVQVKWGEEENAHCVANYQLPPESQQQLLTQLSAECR

The chains behind the UniProt entries cited, without tags or fusion partners. Residues count along the entry.
UniProt P31697, residues 37-241: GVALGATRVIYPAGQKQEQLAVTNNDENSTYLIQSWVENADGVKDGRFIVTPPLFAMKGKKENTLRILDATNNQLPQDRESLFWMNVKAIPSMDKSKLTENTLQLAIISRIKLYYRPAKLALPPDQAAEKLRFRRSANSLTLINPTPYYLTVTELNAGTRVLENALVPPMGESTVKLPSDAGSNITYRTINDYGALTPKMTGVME
UniProt P08191, residues 22-300: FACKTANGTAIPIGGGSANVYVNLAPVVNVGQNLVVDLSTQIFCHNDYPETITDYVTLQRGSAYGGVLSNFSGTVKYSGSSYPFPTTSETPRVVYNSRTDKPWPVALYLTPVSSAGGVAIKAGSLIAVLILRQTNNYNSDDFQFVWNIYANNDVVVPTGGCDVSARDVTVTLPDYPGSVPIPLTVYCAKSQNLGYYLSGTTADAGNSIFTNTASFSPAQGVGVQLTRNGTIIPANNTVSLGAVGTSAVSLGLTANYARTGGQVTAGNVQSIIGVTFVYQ

FimG (E. coli) = molecular target: T2, FimG (E. coli) (UniProt P08190); test: co-purification after periplasmic co-expression (ion exchange, hydrophobic interaction chromatography, SEC); FimC co-expressed with FimF or FimG in E. coli HM125; periplasmic extract; Q-sepharose, Phenyl-sepharose, cation exchange, Superdex 75; identity by ESI-MS
T2 sequence: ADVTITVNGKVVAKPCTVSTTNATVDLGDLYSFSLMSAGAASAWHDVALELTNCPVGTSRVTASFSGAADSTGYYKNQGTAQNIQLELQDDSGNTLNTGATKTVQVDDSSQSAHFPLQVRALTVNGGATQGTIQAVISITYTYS

Substance | binding (FimD (E. coli)) | binding (FimG (E. coli))
FimC of the FimDCH complex (from UniProt P31697 37-241) | binds | –
FimC (from UniProt P31697 37-241) | – | binds
FimH (from UniProt P08191 22-300) | binds | –
